In all, about 33,000 sequences were measured (“E-score (-0.5 to 0.5)”: median about -0.0014, highest 2% from about 0.25 on). This is one part of the list.
The sequences below were run against T1, Cad1 (UniProt P24813) (assay: PBM E-score (8-mer binding enrichment) (E-score (-0.5 to 0.5)); higher = stronger / more preferred TF binding). Conditions: protein concentration: 100 nM; construct: GST-full length.
T1 sequence: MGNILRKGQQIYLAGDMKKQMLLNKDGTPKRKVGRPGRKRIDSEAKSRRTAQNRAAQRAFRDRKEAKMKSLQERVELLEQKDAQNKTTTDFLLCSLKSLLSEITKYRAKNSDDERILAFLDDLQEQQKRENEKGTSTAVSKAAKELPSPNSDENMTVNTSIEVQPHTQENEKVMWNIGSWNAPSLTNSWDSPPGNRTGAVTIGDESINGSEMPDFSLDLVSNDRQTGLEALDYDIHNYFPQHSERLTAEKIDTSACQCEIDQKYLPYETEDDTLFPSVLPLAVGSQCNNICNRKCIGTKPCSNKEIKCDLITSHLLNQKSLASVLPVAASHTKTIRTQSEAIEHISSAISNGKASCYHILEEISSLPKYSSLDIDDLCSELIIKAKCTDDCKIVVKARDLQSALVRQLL
Outline: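 E-scores (a modified Wilcoxon-Mann-Whitney statistic) were assigned by the Universal PBM Analysis Suite to every ungapped eight-base word pooled with its reverse complement. The input came from universal all-10-mer Agilent arrays made double-stranded by primer extension and probed with GST-tagged yeast transcription factors at about 100-200 nM. Fluorescent anti-GST detected bound protein, and masliner normalised the scans.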
CTCAACCA was tested, and the “PBM E-score” value was -0.0185. CGACCCCA was tested, and the “PBM E-score” value was -0.0633. With AGGCTAGA the “PBM E-score” value was -0.244. In the case of CTGTCTGC, the “PBM E-score” value is reported as -0.166. In the case of CCTTCTAG, the “PBM E-score” value is reported as -0.162. ACCAGTAC was tested, and the “PBM E-score” value was 0.096. For ACTAGGCT, the “PBM E-score” value was -0.0722. CACGCACC was tested, and the “PBM E-score” value was 0.0248. AGTGGAAC was tested, and the “PBM E-score” value was -0.0497. In the case of CTGGGTAC, the “PBM E-score” value is reported as -0.194. AGCGAACC was tested, and the “PBM E-score” value was 0.0061. With AGGTCACT the “PBM E-score” value was -0.145. ACGGTAGG was tested, and the “PBM E-score” value was -0.208. In the case of TCCGTAGA, the “PBM E-score” value is reported as -0.0821. With TAAACCTA the “PBM E-score” value was -0.00574. With CAGGCTTA the “PBM E-score” value was 0.0113. GAGGTTGA was tested, and the “PBM E-score” value was -0.0429. For CGGTTAAA, the “PBM E-score” value was -0.148. With ACTGCATC the “PBM E-score” value was -0.00501. ATTATAAA was tested, and the “PBM E-score” value was 0.276. For CCTAGCGA, the “PBM E-score” value was -0.123. In the case of CAGACCAC, the “PBM E-score” value is reported as -0.00956. TACCGAGA was tested, and the “PBM E-score” value was 0.00984. AAGCCCCG was tested, and the “PBM E-score” value was -0.153. With AATTTGAC the “PBM E-score” value was 0.24. For GACTCAGA, the “PBM E-score” value was 0.0638. GCAGAGAC was tested, and the “PBM E-score” value was -0.268. For GAGTACGC, the “PBM E-score” value was -0.178. TTGAGCAA was tested, and the “PBM E-score” value was -0.0596. In the case of AATCCCTG, the “PBM E-score” value is reported as -0.0461. For ATGAGGTG, the “PBM E-score” value was -0.0935. With GCAGGGTA the “PBM E-score” value was -9e-05. For TGGACACA, the “PBM E-score” value was 0.0108. With AGTCGATG the “PBM E-score” value was -0.0154. AAGCCAGT was tested, and the “PBM E-score” value was -0.12. ACTGGAAC was tested, and the “PBM E-score” value was 0.0295. In the case of TTTATAAA, the “PBM E-score” value is reported as 0.261. With ATCGCTCG the “PBM E-score” value was 0.0614. For ACGATAAC, the “PBM E-score” value was 0.166. With ACTACACT the “PBM E-score” value was 0.0645. GAGGCAAA was tested, and the “PBM E-score” value was 0.068. CGATGATC was tested, and the “PBM E-score” value was 0.0807. For ATGTCACG, the “PBM E-score” value was 0.0134. With AGGGAGGC the “PBM E-score” value was -0.128. ACTCGCGG was tested, and the “PBM E-score” value was 0.0242. With AAGACGAG the “PBM E-score” value was -0.224. With GTGGCCAC the “PBM E-score” value was 0.00829. AGCGTTGA was tested, and the “PBM E-score” value was -0.0823. GACGGTGC was tested, and the “PBM E-score” value was 0.0564. For CTTCACGA, the “PBM E-score” value was -0.199. In the case of AGTATCGC, the “PBM E-score” value is reported as 0.0762. With AAAGAACT the “PBM E-score” value was 0.0842. For GCATGGTA, the “PBM E-score” value was -0.0219. For CCATATGA, the “PBM E-score” value was -0.0943. ATAGAGGC was tested, and the “PBM E-score” value was -0.0248. For ATTCAGGA, the “PBM E-score” value was -0.00566. With TATTCGCA the “PBM E-score” value was 0.0238. CGAACAAA was tested, and the “PBM E-score” value was 0.28. In the case of CTTTTCGA, the “PBM E-score” value is reported as 0.0685. GTATCGAA was tested, and the “PBM E-score” value was 0.09. In the case of ATCTCCTG, the “PBM E-score” value is reported as -0.00761. GACCTCAA was tested, and the “PBM E-score” value was 0.0396. In the case of CAGCGAAG, the “PBM E-score” value is reported as -0.103. In the case of CCCACCGC, the “PBM E-score” value is reported as -0.019. With TCTCTAAA the “PBM E-score” value was -0.202. CAACCGAG was tested, and the “PBM E-score” value was -0.042. With GCACGCCA the “PBM E-score” value was -0.056. ATTGTTCG was tested, and the “PBM E-score” value was 0.237. GCTCGAAA was tested, and the “PBM E-score” value was 0.208. GCGGCGCC was tested, and the “PBM E-score” value was 0.159. In the case of CCTCCTGC, the “PBM E-score” value is reported as -0.225. For AACCTTGG, the “PBM E-score” value was -0.168. With CGCATTAA the “PBM E-score” value was 0.193. With ACCACCGA the “PBM E-score” value was -0.0327. In the case of CGACAAAA, the “PBM E-score” value is reported as 0.136. For CTGGACAA, the “PBM E-score” value was 0.00868. For CAACCCAG, the “PBM E-score” value was -0.0873. AGAGGACC was tested, and the “PBM E-score” value was -0.231. With CTTTTGGA the “PBM E-score” value was -0.102. With TCCAGAGA the “PBM E-score” value was -0.0446. With CCGATACC the “PBM E-score” value was -0.0535. TCAATAAA was tested, and the “PBM E-score” value was -0.0393. In the case of AGTGCGAT, the “PBM E-score” value is reported as -0.102. For TCTGCCCA, the “PBM E-score” value was -0.17. For GGTTTTGA, the “PBM E-score” value was 0.0367. GGTTCAGA was tested, and the “PBM E-score” value was -0.0239. In the case of ACCATCTC, the “PBM E-score” value is reported as -0.00964. With CCCTCACA the “PBM E-score” value was -0.0201. In the case of ATTAATAG, the “PBM E-score” value is reported as 0.275. With AGTCGCAA the “PBM E-score” value was 0.132. In the case of CTCAAAGC, the “PBM E-score” value is reported as 0.0156. With CCCACCAA the “PBM E-score” value was -0.0273. With AAGGCCCT the “PBM E-score” value was 0.0605. For TCACCTAA, the “PBM E-score” value was 0.0992. In the case of GAATGTGA, the “PBM E-score” value is reported as 0.0848. For CATTCGCA, the “PBM E-score” value was -0.056. AGTTGGAA was tested, and the “PBM E-score” value was -0.0684. In the case of AATCGGTA, the “PBM E-score” value is reported as 0.0304. With ATCAGTTC the “PBM E-score” value was -0.0834. AGATCCAG was tested, and the “PBM E-score” value was 0.114. In the case of AATCGCGT, the “PBM E-score” value is reported as 0.107. CTCCACTA was tested, and the “PBM E-score” value was 0.138. For GAGAGCTC, the “PBM E-score” value was -0.189. GAAAGCAA was tested, and the “PBM E-score” value was 0.184. In the case of ACACGATA, the “PBM E-score” value is reported as 0.0823. GACCTAAA was tested, and the “PBM E-score” value was -0.0239. With AGGTAGGA the “PBM E-score” value was 0.0957. In the case of CTAGGGAG, the “PBM E-score” value is reported as -0.233. For TGGTCCAA, the “PBM E-score” value was -0.199. TGAGCGAA was tested, and the “PBM E-score” value was 0.123. For AACCCCGA, the “PBM E-score” value was 0.0275. With GGGCCCCC the “PBM E-score” value was -0.44. In the case of ACCTTAGC, the “PBM E-score” value is reported as -0.019. In the case of CCGTAAGA, the “PBM E-score” value is reported as -0.0747. CTAGAACA was tested, and the “PBM E-score” value was 0.127. AACGTCGT was tested, and the “PBM E-score” value was 0.144. CTGGCTGA was tested, and the “PBM E-score” value was -0.00206. With GTGTAGTA the “PBM E-score” value was 0.0567. In the case of AGCGTACG, the “PBM E-score” value is reported as 0.00701. With AGGGTCAT the “PBM E-score” value was -0.269. In the case of CGATCGTC, the “PBM E-score” value is reported as 0.124. CAGCGTAA was tested, and the “PBM E-score” value was 0.0938. With CCACAGTC the “PBM E-score” value was -0.203. AAACATAT was tested, and the “PBM E-score” value was 0.25. For AAACTGGA, the “PBM E-score” value was -0.0639. For CATTACAA, the “PBM E-score” value was 0.277. TCAACCGA was tested, and the “PBM E-score” value was 0.0888. For CAGTATGG, the “PBM E-score” value was -0.0483. With GTTGTGGA the “PBM E-score” value was 0.00861. For CGAAAAAC, the “PBM E-score” value was 0.0924. GGATGCAA was tested, and the “PBM E-score” value was -0.156. AAGTGCCA was tested, and the “PBM E-score” value was -0.0312. CGAGCATA was tested, and the “PBM E-score” value was -0.0892. GTAACTGA was tested, and the “PBM E-score” value was 0.00925. In the case of CAAGGCTC, the “PBM E-score” value is reported as -0.318. CCCGTCCC was tested, and the “PBM E-score” value was -0.033. With AGACCACA the “PBM E-score” value was -0.0838. In the case of CCGAATCG, the “PBM E-score” value is reported as 0.0646. AGAAGAGC was tested, and the “PBM E-score” value was -0.0404. ACTACGCG was tested, and the “PBM E-score” value was -0.12. With GAACTGGC the “PBM E-score” value was 0.037. In the case of AATTATGT, the “PBM E-score” value is reported as 0.167. For AAACGTCG, the “PBM E-score” value was 0.0516. With GCAGTGGC the “PBM E-score” value was -0.0938. With CACCAGTA the “PBM E-score” value was 0.136. ACCGTTCC was tested, and the “PBM E-score” value was 0.103. In the case of CCGTGAGC, the “PBM E-score” value is reported as -0.158. For AGAGACGA, the “PBM E-score” value was -0.00272. With ATAGGGGC the “PBM E-score” value was -0.178. For CCGCTAGA, the “PBM E-score” value was -0.225. With GGGACTGA the “PBM E-score” value was -0.16. With CTGGATGA the “PBM E-score” value was -0.0133. For AGAAAGCT, the “PBM E-score” value was 0.142. With AGTAGGAG the “PBM E-score” value was -0.156. GGGGTAAA was tested, and the “PBM E-score” value was 0.0473. With AGAAGGTG the “PBM E-score” value was -0.104. AGGAAGCG was tested, and the “PBM E-score” value was 0.00275. With ACGGACCT the “PBM E-score” value was -0.0269. With GGCGGGCA the “PBM E-score” value was -0.102. With AACAGTCC the “PBM E-score” value was -0.0882. In the case of AGATCGCA, the “PBM E-score” value is reported as 0.0335. With TCAGATAA the “PBM E-score” value was 0.186. In the case of AGGCATCA, the “PBM E-score” value is reported as -0.194. With CGAAGAGA the “PBM E-score” value was 0.106. In the case of ACGCCCAG, the “PBM E-score” value is reported as 0.0778. CGCCGACC was tested, and the “PBM E-score” value was -0.0333. In the case of CCGCACCC, the “PBM E-score” value is reported as 0.00697. With CTATACAG the “PBM E-score” value was 0.048. In the case of CGCACGAG, the “PBM E-score” value is reported as -0.174. AGTTCTTA was tested, and the “PBM E-score” value was 0.174. With AAGACACT the “PBM E-score” value was -0.0345. AGGTCTGG was tested, and the “PBM E-score” value was -0.167.

Reference: the supplement of paper PMC3334620
